Experimental data from the supplement of paper PMC3334620.
Whole data set: some 33,000 sequences, median “E-score (-0.5 to 0.5)” near -0.0059, cut for the highest 2% near 0.26. The list shows a part of the results.

The sequences below were run against T1, Cin5 (UniProt P40917) (assay: PBM E-score (8-mer binding enrichment) (E-score (-0.5 to 0.5)); higher = stronger / more preferred TF binding). Settings: protein concentration: 100 nM; construct: GST-full length.
T1 sequence: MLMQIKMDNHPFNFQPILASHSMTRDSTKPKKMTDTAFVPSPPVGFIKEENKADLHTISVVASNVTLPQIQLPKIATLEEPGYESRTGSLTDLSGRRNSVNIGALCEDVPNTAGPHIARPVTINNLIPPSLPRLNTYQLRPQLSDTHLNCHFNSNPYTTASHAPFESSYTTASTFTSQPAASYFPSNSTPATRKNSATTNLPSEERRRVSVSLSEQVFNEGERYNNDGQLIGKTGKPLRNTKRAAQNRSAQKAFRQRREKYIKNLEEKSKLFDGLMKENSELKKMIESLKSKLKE
Method in brief: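 Each ungapped eight-base word and its reverse complement, pooled, received an E-score from the Universal PBM Analysis Suite. Underlying scans, normalised with masliner, recorded fluorescent anti-GST bound to GST-tagged yeast transcription factors. These were applied at about 100-200 nM to universal all-10-mer Agilent arrays double-stranded by primer extension.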
GTTATATA was tested, and the “PBM E-score” value was 0.271. For CCGCGCGA, the “PBM E-score” value was 0.186. In the case of TGTACGAA, the “PBM E-score” value is reported as 0.0993. With ATCAACTC the “PBM E-score” value was 0.0259. In the case of CTCGAGAC, the “PBM E-score” value is reported as 0.0883. For CGGGGCGA, the “PBM E-score” value was 0.106. For AGTACGAT, the “PBM E-score” value was 0.124. For CAGTAGGC, the “PBM E-score” value was -0.0123. For AACCCAAG, the “PBM E-score” value was 0.0519. In the case of AAGCGGCA, the “PBM E-score” value is reported as 0.149. For GAAGCAAA, the “PBM E-score” value was -0.00036. For AAGTTGCA, the “PBM E-score” value was 0.036. With GGGGCCCC the “PBM E-score” value was -0.0592. For CTTCCGAC, the “PBM E-score” value was -0.206. For GTTTCGTA, the “PBM E-score” value was 0.194. In the case of ACCAACTC, the “PBM E-score” value is reported as -0.0248. In the case of ACGCCAGT, the “PBM E-score” value is reported as -0.13. CTTATACC was tested, and the “PBM E-score” value was 0.122. For AGTCTAAA, the “PBM E-score” value was -0.071. In the case of CCAGAAAC, the “PBM E-score” value is reported as 0.0262. For ACCTCCGT, the “PBM E-score” value was -0.176. In the case of GTACGTTA, the “PBM E-score” value is reported as 0.159. For CACTTAAC, the “PBM E-score” value was 0.0141. With ACAATCAG the “PBM E-score” value was 0.134. GGGTCTTA was tested, and the “PBM E-score” value was -0.0273. With CACGGCAC the “PBM E-score” value was -0.19. With CTTGTGGC the “PBM E-score” value was -0.258. For ATTATAAT, the “PBM E-score” value was 0.265. With TAGATTAA the “PBM E-score” value was 0.154. ACACTAAT was tested, and the “PBM E-score” value was 0.149. For CGGCTGTC, the “PBM E-score” value was -0.11. With CCCCTGTA the “PBM E-score” value was 0.0428. For AACAATCC, the “PBM E-score” value was 0.152. In the case of CAATCAAA, the “PBM E-score” value is reported as 0.151. With AGACTCTA the “PBM E-score” value was -0.177. With CCCGGCTC the “PBM E-score” value was -0.287. In the case of CGAGCGTC, the “PBM E-score” value is reported as -0.163. In the case of CCTTCGAA, the “PBM E-score” value is reported as -0.116. With ATTATTGC the “PBM E-score” value was 0.22. In the case of CCGCCCGC, the “PBM E-score” value is reported as 0.116. CCTTGTAA was tested, and the “PBM E-score” value was 0.0736. With AAGCCTCG the “PBM E-score” value was 0.0374. In the case of GATCAGAC, the “PBM E-score” value is reported as -0.0282. In the case of ACACCATG, the “PBM E-score” value is reported as 0.0111. With CCAAACAA the “PBM E-score” value was 0.0879. With ACGAATAC the “PBM E-score” value was 0.224. In the case of AATACGGC, the “PBM E-score” value is reported as 0.146. In the case of AGTTGTGA, the “PBM E-score” value is reported as 0.0963. With GGAAACAA the “PBM E-score” value was 0.0974. ATTCCTTC was tested, and the “PBM E-score” value was 0.155. For GAGATATA, the “PBM E-score” value was 0.0101. For GCAGGAGC, the “PBM E-score” value was -0.285. In the case of CACGTCGC, the “PBM E-score” value is reported as -0.119. ATCCACAA was tested, and the “PBM E-score” value was 0.0817. With ACGGCAGT the “PBM E-score” value was -0.191. In the case of CAGCTGAC, the “PBM E-score” value is reported as 0.154. With CACACTCG the “PBM E-score” value was 0.22. For CTATCGGC, the “PBM E-score” value was -0.0472. In the case of CGTTGTGC, the “PBM E-score” value is reported as -0.0586. For AAGGCGAC, the “PBM E-score” value was -0.147. GAGGCACA was tested, and the “PBM E-score” value was -0.133. In the case of AGGAGGCG, the “PBM E-score” value is reported as -0.133. In the case of TAAGCGTA, the “PBM E-score” value is reported as 0.126. With CGCGGTTC the “PBM E-score” value was 0.0646. For AGGGGCTC, the “PBM E-score” value was -0.243. With GCCCAGTA the “PBM E-score” value was -0.0745. For TACCCTCA, the “PBM E-score” value was -0.00847. In the case of AAGGTACC, the “PBM E-score” value is reported as -0.18. GTTACAAA was tested, and the “PBM E-score” value was 0.184. CCAGCGCA was tested, and the “PBM E-score” value was -0.132. CCTCTTCC was tested, and the “PBM E-score” value was -0.159. With ACTTGTAC the “PBM E-score” value was 0.00779. In the case of GACGAACC, the “PBM E-score” value is reported as -0.115. ATGGTAGC was tested, and the “PBM E-score” value was -0.102. In the case of ACAGTGAG, the “PBM E-score” value is reported as -0.0526. For ACCGGCAC, the “PBM E-score” value was -0.0555. For CTTAGACC, the “PBM E-score” value was -0.1. In the case of GCTCACTA, the “PBM E-score” value is reported as 0.00961. In the case of AATTACCT, the “PBM E-score” value is reported as 0.0437. For CTTAGCTC, the “PBM E-score” value was -0.106. For GGGCATTA, the “PBM E-score” value was -0.217. For CCTTCCAC, the “PBM E-score” value was -0.046. With AAAATCTT the “PBM E-score” value was -0.0659. In the case of AGAGGGAG, the “PBM E-score” value is reported as -0.225. In the case of TGACCCCA, the “PBM E-score” value is reported as 0.019. For AGTTAACG, the “PBM E-score” value was 0.106. In the case of ACGGGCTG, the “PBM E-score” value is reported as -0.179. GGCTAGCC was tested, and the “PBM E-score” value was -0.2. In the case of TCGGTAGA, the “PBM E-score” value is reported as -0.0323. In the case of CAGTCTAA, the “PBM E-score” value is reported as 0.171. With GTCGTTTA the “PBM E-score” value was 0.0464. ACCCCAGT was tested, and the “PBM E-score” value was 0.228. For AGATGATG, the “PBM E-score” value was 0.27. For CTTCCATA, the “PBM E-score” value was -0.201. CAGGAAGG was tested, and the “PBM E-score” value was -0.315. With CAGGTAGA the “PBM E-score” value was -0.0578. In the case of GGCCGTTA, the “PBM E-score” value is reported as 0.0315. With GGGGGGCA the “PBM E-score” value was -0.427. AAAAATCG was tested, and the “PBM E-score” value was -0.0511. AAGCTCCT was tested, and the “PBM E-score” value was -0.226. In the case of AAACGGGA, the “PBM E-score” value is reported as 0.126. In the case of AAGTTCCG, the “PBM E-score” value is reported as 0.0869. GTGCAGGA was tested, and the “PBM E-score” value was -0.0289. TACTGAGA was tested, and the “PBM E-score” value was -0.0565. For ACTTCTTA, the “PBM E-score” value was 0.0563. In the case of GCCCCGAA, the “PBM E-score” value is reported as 0.106. For CTATGATA, the “PBM E-score” value was 0.116. In the case of CAGCTCTA, the “PBM E-score” value is reported as -0.0951. AAAGCAGG was tested, and the “PBM E-score” value was -0.0862. With GGTTGGTA the “PBM E-score” value was 0.0759. In the case of GCATCCCA, the “PBM E-score” value is reported as -0.194. CATGGGGG was tested, and the “PBM E-score” value was -0.399. TGCCGGCA was tested, and the “PBM E-score” value was 0.109. For CAGCGCGA, the “PBM E-score” value was -0.00789. In the case of GGAGTAAC, the “PBM E-score” value is reported as -0.0806. AGCGATCA was tested, and the “PBM E-score” value was -0.052. CGCTACCG was tested, and the “PBM E-score” value was -0.155. For GGTCTCTA, the “PBM E-score” value was -0.0547. With AGCATAGC the “PBM E-score” value was -0.0747. In the case of CTGTGTGA, the “PBM E-score” value is reported as 0.142. For CATTGCGG, the “PBM E-score” value was -0.0746. For AACGACCT, the “PBM E-score” value was 0.0526. TTCATGAA was tested, and the “PBM E-score” value was 0.0642. With GCGTGTGA the “PBM E-score” value was -0.0649. In the case of CGCTTATC, the “PBM E-score” value is reported as 0.126. With ACAACCTC the “PBM E-score” value was -0.0697. In the case of ACCCGTAG, the “PBM E-score” value is reported as -0.249. With CAGGGGCG the “PBM E-score” value was -0.079. ATCGCAAG was tested, and the “PBM E-score” value was 0.0365. With GGTGTACA the “PBM E-score” value was -0.034. CTAAAGTA was tested, and the “PBM E-score” value was -0.0582. In the case of AACGCCTC, the “PBM E-score” value is reported as -0.25. For CCAGTAAC, the “PBM E-score” value was -0.0821. With ATTGCCGA the “PBM E-score” value was -0.0415. For CTATATAG, the “PBM E-score” value was 0.103. For AGCCTGCA, the “PBM E-score” value was -0.0216. For CCAATTTA, the “PBM E-score” value was 0.247. For AGAATGGA, the “PBM E-score” value was 0.111. CTTCCCCA was tested, and the “PBM E-score” value was -0.116. With ATAGGGTG the “PBM E-score” value was -0.109. In the case of GTTGGATA, the “PBM E-score” value is reported as 0.0096. In the case of TCATATCA, the “PBM E-score” value is reported as 0.0786. For CCATCCAC, the “PBM E-score” value was -0.0374. With AACTGATC the “PBM E-score” value was 0.0762. For CCGCAACG, the “PBM E-score” value was -1e-05. In the case of ATTATCAA, the “PBM E-score” value is reported as 0.274. With CCCATCGG the “PBM E-score” value was -0.0343. For AGGCTCTA, the “PBM E-score” value was -0.177. For CTCCGACA, the “PBM E-score” value was -0.117. With ACTCTTGG the “PBM E-score” value was -0.182. With TCAAGAGA the “PBM E-score” value was 0.0118. With ATCGCTCC the “PBM E-score” value was -0.155. With AGTCATCC the “PBM E-score” value was -0.0957. CATAAGGA was tested, and the “PBM E-score” value was -0.0122. GCGCGTAC was tested, and the “PBM E-score” value was 0.0346. CAGCCCGG was tested, and the “PBM E-score” value was -0.0638. In the case of CAGGATCG, the “PBM E-score” value is reported as -0.113. With AAAGAGAG the “PBM E-score” value was -0.082. In the case of ACTAGCGC, the “PBM E-score” value is reported as 0.00268. For CCCGGAAA, the “PBM E-score” value was 0.136. In the case of ACGACATC, the “PBM E-score” value is reported as -0.0616. With CACTACCC the “PBM E-score” value was -0.0308. For ACTGGCGA, the “PBM E-score” value was -0.139. AATGGAAG was tested, and the “PBM E-score” value was 0.0673. With CTGCCGAA the “PBM E-score” value was -0.155. In the case of CCTGGAAG, the “PBM E-score” value is reported as -0.115. In the case of ACACCGAG, the “PBM E-score” value is reported as -0.0675. In the case of ACTAATCA, the “PBM E-score” value is reported as 0.264. CAATTTCG was tested, and the “PBM E-score” value was 0.0631. In the case of AACGTATG, the “PBM E-score” value is reported as -0.0311. For ACCACCCG, the “PBM E-score” value was -0.101. For TACGGGAA, the “PBM E-score” value was -0.108.
